Source: patent US20120107398A1, “PHARMACEUTICAL COMPOSITIONS” (BOEHRINGER INGELHEIM INTERNATIONAL GMBH, priority 2010, published 2012)
Counter-ions that a name gives are not always drawn. At least one structure is not confirmed: it was looked up by name or label, or the drawing left a doubt.

Assay: Intrinsic dissolution rate in aqueous media
Type: physicochemical

CCc1ccc(CCOc2ccc(CC3SC(=O)NC3=O)cc2)nc1 (centres unmarked) [pioglitazone hydrochloride]
intrinsic dissolution rate in aqueous media (less acidic solutions (e.g. pH 2)): below 100 μg/cm^2/min | intrinsic dissolution rate in aqueous media (pH 1): above 1000 μg/cm^2/min
